Values quoted from earlier work in patent publication US11306056B2 (Cardioxyl Pharmaceuticals, Inc., priority 2006, dated 2022).

Details: cited from earlier work; for donor type under physiological conditions: PA via an oxidative pathway (Zamora et al. 1995)

SMILES: [Na+].[Na+].[O-][N+]([O-])=NO [AS, sodium dioxotrinitrate]
- donor type under physiological conditions: nitroxyl donor

SMILES: O=S(=O)(NO)c1ccccc1 [PA, N-hydroxybenzenesulfonamide]
- donor type at high pH (high pH (>9), Bonner and Ko 1992): nitroxyl donor
- donation of significant amounts of nitroxyl (physiological conditions (Zamora)): does not in fact donate significant amounts of nitroxyl
- donor type under physiological conditions: nitric oxide donor
